The target of this test is ribosomal protein S5b (D. melanogaster (endogenous in ovaries)) (UniProt Q9VFE4). Kind of test: co-IP; antisera to RpS5a, RpS5b or non-immune IgG on Dynabeads; ovary lysate in 50 mM HEPES pH 7.5, 100 mM KCl, 12 mM MgCl2, 1% NP-40, 1 mM dithiothreitol, RNase inhibitor, cycloheximide; 1.5 h at 4 °C; Western blot. Background: Immunoblotting shows a protein as a band on a membrane.

Protein sequences, listed by entry. Tags and fused reporters are not part of them.
UniProt P29327: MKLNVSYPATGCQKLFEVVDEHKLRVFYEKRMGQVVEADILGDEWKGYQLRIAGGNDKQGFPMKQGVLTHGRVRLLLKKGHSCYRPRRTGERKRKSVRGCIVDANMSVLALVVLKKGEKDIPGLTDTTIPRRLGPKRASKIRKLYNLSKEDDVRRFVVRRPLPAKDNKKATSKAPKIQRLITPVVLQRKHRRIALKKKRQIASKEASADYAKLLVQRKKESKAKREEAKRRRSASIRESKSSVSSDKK

These are yes or no findings as the source states them, for the method shown. Binding seen in cells or lysates may run through a third protein. Some binding calls cover weakened binding; strength is not graded here.

As to “ribosomal protein RpS6 (from UniProt P29327 1-248)”, the binding entry is given as “binds”.

The record behind these values is paper PMC6760144.
